Data taken from publication PMC8883493.
No constants are given. Whether binding was seen depends on the method and setting. Binding seen in cells or lysates may run through a third protein. Some entries that bind do so weakly or less than the wild type.

Sequences of proteins named here, by UniProt entry; tags and fusion partners are left off.
UniProt Q15438: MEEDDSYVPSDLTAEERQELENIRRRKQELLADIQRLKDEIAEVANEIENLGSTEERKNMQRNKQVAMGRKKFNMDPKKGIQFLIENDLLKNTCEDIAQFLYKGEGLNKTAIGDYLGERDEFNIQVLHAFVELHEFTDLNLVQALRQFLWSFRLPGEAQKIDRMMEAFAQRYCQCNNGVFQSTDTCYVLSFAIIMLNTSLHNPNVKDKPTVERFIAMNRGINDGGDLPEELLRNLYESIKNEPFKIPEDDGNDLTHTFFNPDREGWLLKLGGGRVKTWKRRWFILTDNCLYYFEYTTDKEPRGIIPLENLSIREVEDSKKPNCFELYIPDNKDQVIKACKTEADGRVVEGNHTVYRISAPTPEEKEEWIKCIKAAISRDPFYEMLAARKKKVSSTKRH

Molecular target: cytohesin-1 (human (endogenous in primary T cells)) (UniProt Q15438)
Assay: co-IP; 0.5 mg primary human T cell extract with 0.5 µg anti-cytohesin (goat IgG as control), 2.5 h, 4°C; protein A/G magnetic beads; washed x3 with 50 mM Tris-HCl pH 7.5, 0.2 M NaCl, 1% Triton X-100; blotted for CYTIP and SNX27; cells with or without IL-7 overnight and with or without CD3 cross-linking for 8 min

- binding: binds
B1: cytohesin interacting protein (CYTIP) (protein, UniProt O60759 1-359)
chain: MSLQRLLQHSSNGNLADFCAGPAYSSYSTLTGSLTMDDNRRIQMLADTVATLPRGRKQLALTRSSSLSDFSWSQRKLVTVEKQDNETFGFEIQSYRPQNQNACSSEMFTLICKIQEDSPAHCAGLQAGDVLANINGVSTEGFTYKQVVDLIRSSGNLLTIETLNGTMILKRTELEAKLQVLKQTLKQKWVEYRSLQLQEHRLLHGDAANCPSLENMDLDELSLFGPLPGPGPALVDRNRLSSESSCKSWLSSMTMDSEDGYQTCVSEDSSRGAFSRQTSTDDECFIPKEGDDFLRRSSSRRNRSISNTSSGSMSPLWEGNLSSMFGTLPRKSRKGSVRKQLLKFIPGLHRAVEEEESRF
modifications: phosphothreonine at 280 (pThr280), dephosphorylated upon IL-7 stimulation
